Results on one substance are retold here after patent publication US20240174765A1 (ACADEMIA SINICA, published 2024).

By UniProt entry, the sequences of proteins in these tests, tags left out. Residues count along the entry.
UniProt P08581, residues 25-1390: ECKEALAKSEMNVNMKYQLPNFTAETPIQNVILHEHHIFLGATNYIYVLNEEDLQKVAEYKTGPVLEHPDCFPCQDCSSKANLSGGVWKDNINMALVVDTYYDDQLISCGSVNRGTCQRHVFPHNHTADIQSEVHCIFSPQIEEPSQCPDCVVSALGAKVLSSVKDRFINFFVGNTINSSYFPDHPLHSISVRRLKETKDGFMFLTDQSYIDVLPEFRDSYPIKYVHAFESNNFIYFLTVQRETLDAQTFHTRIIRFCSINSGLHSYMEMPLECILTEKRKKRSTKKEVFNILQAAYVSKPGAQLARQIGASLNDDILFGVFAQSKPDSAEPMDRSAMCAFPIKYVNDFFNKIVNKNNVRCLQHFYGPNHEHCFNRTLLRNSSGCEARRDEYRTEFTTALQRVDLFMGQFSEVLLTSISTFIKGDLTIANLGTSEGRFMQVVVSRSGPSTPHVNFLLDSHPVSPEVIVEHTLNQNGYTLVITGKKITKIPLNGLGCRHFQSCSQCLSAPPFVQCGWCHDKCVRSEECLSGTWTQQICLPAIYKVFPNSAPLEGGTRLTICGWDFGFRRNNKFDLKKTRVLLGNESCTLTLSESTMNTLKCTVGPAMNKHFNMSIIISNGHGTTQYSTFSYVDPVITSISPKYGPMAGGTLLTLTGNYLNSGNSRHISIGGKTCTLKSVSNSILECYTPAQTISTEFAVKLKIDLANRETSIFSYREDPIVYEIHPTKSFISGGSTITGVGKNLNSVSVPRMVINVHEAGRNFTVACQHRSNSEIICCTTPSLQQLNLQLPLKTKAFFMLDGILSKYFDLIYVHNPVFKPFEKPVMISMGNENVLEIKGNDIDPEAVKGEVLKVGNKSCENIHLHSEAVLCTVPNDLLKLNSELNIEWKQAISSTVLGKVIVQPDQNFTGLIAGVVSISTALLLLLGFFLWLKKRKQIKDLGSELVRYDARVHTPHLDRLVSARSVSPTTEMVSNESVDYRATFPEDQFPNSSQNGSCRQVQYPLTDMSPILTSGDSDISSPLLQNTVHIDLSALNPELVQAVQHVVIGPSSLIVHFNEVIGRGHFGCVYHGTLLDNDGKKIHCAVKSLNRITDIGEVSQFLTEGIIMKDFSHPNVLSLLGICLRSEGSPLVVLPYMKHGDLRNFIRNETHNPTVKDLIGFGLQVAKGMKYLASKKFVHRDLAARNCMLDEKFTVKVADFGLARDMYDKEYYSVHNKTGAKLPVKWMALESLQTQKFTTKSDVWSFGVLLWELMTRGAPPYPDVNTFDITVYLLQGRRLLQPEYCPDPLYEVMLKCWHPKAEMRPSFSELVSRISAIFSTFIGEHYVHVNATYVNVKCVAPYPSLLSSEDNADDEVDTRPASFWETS
UniProt P06733: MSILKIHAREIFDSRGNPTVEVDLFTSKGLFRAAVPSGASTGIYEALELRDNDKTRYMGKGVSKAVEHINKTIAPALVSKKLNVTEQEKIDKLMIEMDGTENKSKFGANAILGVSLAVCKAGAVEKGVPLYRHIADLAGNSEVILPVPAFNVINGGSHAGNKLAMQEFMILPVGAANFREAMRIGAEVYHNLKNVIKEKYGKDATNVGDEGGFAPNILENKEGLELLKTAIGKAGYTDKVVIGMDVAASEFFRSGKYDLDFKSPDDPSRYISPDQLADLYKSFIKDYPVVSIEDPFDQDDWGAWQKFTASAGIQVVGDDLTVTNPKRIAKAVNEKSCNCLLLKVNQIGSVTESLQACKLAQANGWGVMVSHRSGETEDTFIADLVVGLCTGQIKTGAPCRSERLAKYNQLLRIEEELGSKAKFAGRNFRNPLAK

Results are given in words; binding and its absence hold for the method and conditions named. In cells and extracts the contact can be indirect. Some binding calls cover weakened binding; strength is not graded here.

The assay deals with hepatocyte growth factor receptor (HGFR), endogenous in CL1-5 cells (human) (UniProt P08581). Put plainly: co-IP from CL1-5 cells expressing FLAG-tagged ENO1.

On to “FLAG-tagged ENO1 (from UniProt P06733 1-434) (enzyme)”, for which the binding result was “binds”.
